Reference: the supplement of paper PMC11006884
The entries are a selection whose mix differs from that of the whole data set.

Sequences of proteins named here, by UniProt entry; tags and fusion partners are left off. A change or cut given only in a name is not applied to a line headed by its entry.
UniProt Q92576, whole entry, looked up: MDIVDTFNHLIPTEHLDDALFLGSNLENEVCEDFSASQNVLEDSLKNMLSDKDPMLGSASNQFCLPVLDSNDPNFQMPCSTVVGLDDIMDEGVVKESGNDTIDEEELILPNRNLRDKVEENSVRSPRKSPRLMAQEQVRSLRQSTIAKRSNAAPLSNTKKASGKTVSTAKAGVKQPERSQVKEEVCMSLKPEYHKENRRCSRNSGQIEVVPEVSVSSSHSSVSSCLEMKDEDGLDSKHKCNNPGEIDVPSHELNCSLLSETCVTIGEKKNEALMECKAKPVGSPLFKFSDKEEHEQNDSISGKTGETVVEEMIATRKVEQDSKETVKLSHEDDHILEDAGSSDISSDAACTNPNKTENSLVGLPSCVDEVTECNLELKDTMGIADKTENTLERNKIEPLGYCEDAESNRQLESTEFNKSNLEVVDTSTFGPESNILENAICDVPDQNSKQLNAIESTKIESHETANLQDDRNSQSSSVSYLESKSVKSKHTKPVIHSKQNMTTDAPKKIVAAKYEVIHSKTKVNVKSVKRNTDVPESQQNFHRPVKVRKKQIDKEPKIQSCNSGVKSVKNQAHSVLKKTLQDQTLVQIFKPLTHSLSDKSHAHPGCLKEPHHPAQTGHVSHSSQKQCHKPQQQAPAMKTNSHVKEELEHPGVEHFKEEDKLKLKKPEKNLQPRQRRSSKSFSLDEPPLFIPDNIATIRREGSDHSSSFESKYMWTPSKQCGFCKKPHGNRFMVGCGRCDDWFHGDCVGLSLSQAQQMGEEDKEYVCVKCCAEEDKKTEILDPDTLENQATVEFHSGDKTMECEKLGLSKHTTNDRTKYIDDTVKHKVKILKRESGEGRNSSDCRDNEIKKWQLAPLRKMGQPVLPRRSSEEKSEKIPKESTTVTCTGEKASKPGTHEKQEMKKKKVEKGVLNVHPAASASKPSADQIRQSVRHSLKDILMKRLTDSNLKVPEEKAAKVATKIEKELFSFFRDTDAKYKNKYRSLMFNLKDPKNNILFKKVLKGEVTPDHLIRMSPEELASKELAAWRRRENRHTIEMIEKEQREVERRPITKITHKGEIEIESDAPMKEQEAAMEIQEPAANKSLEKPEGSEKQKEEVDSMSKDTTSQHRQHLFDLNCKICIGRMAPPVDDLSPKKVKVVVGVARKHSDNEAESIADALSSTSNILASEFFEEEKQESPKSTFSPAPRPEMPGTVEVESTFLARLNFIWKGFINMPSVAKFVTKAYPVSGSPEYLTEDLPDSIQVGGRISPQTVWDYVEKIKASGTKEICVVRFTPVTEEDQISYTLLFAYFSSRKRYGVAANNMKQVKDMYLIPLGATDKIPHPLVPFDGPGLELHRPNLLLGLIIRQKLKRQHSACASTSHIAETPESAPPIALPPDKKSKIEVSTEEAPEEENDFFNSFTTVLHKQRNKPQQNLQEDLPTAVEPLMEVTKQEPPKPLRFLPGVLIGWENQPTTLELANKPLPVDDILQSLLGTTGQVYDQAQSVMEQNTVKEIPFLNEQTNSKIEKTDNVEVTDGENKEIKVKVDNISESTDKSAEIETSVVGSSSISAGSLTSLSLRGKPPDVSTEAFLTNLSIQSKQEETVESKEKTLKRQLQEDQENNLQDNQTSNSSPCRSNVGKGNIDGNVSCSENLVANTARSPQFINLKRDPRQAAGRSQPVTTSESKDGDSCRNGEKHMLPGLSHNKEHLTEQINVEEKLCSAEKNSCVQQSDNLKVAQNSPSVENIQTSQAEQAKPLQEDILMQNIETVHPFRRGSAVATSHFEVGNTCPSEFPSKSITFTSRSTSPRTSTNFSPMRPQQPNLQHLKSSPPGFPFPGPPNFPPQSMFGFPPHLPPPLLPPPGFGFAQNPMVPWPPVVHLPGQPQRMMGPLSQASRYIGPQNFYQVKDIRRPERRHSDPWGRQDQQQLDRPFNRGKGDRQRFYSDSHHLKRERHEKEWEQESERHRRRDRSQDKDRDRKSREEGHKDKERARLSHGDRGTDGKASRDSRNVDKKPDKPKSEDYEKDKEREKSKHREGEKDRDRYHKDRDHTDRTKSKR
UniProt Q92997: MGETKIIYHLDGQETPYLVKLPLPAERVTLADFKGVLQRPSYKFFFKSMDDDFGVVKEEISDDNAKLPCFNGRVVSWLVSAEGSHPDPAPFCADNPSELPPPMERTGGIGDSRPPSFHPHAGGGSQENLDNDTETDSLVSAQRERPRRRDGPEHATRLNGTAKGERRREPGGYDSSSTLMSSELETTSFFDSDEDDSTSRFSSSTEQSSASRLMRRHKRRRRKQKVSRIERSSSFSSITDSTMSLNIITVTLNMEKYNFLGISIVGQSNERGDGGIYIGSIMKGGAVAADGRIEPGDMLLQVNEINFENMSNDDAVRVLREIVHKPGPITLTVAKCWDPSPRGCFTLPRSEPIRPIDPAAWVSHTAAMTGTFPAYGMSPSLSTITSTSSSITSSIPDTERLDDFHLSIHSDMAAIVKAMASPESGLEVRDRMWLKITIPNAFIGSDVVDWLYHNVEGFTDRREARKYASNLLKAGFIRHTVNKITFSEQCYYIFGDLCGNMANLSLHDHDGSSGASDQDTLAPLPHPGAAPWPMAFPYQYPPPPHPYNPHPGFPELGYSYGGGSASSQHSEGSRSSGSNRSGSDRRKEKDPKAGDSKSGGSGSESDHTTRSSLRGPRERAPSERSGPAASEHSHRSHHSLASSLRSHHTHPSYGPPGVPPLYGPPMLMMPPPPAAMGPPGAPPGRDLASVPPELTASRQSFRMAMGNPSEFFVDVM
UniProt Q93008, whole entry, looked up: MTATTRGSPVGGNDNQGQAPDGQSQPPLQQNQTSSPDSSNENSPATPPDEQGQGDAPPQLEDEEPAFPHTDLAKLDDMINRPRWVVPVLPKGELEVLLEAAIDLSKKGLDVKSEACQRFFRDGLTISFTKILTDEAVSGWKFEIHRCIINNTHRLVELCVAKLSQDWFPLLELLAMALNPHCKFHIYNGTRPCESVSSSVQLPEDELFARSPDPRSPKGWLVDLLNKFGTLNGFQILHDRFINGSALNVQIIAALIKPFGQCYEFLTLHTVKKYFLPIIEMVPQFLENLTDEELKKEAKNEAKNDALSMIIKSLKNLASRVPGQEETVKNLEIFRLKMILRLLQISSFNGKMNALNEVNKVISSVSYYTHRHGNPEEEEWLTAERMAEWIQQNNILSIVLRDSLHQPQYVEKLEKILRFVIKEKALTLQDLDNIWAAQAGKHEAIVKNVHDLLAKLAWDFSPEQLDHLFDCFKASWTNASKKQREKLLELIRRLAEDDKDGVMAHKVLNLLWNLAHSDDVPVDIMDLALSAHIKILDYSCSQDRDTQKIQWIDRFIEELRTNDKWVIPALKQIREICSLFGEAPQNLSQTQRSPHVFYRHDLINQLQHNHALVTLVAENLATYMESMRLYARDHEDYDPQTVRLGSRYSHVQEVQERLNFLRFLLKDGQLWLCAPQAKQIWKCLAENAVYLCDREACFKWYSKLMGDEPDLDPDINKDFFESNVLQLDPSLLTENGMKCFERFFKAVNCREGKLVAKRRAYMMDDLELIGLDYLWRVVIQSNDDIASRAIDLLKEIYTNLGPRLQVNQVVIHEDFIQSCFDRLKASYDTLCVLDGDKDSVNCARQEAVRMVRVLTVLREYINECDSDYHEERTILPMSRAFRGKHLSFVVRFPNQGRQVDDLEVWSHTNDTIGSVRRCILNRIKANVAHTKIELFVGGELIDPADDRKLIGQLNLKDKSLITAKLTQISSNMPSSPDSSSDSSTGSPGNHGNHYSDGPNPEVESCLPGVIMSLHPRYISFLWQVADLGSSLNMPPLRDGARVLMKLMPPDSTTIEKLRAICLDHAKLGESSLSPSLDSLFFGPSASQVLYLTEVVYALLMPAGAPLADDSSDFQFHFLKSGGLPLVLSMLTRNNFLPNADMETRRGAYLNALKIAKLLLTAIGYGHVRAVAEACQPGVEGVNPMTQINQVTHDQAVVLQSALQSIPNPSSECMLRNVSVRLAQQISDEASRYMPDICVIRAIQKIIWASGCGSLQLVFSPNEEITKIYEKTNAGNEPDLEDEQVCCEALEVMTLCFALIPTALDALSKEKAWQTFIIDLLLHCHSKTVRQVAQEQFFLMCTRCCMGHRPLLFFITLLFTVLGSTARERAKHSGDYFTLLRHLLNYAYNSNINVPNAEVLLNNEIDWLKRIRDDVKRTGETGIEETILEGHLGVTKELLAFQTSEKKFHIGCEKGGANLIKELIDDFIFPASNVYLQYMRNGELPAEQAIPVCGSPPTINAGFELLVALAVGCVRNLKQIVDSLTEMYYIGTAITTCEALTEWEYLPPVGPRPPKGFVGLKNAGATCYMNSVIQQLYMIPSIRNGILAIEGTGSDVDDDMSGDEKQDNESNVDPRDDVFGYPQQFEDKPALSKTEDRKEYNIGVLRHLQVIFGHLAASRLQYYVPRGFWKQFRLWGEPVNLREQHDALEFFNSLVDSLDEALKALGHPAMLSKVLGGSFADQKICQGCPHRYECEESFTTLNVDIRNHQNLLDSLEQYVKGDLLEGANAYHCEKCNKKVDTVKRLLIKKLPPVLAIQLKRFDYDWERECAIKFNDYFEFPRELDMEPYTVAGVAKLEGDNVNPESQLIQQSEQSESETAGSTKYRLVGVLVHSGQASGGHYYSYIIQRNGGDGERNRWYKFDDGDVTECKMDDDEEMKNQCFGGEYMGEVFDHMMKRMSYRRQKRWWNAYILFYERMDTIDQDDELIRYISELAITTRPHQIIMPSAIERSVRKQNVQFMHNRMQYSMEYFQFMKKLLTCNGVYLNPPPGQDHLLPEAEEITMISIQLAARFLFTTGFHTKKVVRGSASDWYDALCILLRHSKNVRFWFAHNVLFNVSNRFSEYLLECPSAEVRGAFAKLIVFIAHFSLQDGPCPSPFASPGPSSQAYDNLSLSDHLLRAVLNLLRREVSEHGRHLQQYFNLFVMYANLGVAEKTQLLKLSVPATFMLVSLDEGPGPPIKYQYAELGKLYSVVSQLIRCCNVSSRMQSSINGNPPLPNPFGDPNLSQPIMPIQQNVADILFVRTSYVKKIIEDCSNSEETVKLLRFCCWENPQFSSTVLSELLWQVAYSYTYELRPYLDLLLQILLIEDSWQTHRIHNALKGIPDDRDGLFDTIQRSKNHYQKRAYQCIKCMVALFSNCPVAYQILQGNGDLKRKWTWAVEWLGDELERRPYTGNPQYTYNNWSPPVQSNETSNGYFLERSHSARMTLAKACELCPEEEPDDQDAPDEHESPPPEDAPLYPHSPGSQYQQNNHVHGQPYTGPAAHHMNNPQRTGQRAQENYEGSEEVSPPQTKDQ
UniProt Q96CP2: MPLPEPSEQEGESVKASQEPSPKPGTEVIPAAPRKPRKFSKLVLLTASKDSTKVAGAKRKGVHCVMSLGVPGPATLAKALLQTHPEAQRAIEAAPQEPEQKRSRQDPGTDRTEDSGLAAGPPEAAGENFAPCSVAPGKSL
UniProt Q96EP5: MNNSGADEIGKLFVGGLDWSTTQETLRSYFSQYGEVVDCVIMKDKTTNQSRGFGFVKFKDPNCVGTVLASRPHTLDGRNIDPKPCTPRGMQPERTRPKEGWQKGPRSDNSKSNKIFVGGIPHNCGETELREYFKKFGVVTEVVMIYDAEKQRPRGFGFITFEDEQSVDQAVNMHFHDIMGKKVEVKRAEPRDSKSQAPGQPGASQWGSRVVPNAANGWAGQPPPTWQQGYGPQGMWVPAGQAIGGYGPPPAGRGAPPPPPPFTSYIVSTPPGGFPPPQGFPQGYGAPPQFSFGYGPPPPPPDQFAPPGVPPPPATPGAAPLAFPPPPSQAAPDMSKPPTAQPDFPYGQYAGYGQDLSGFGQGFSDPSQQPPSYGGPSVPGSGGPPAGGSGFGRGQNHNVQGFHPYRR
UniProt Q96HC4: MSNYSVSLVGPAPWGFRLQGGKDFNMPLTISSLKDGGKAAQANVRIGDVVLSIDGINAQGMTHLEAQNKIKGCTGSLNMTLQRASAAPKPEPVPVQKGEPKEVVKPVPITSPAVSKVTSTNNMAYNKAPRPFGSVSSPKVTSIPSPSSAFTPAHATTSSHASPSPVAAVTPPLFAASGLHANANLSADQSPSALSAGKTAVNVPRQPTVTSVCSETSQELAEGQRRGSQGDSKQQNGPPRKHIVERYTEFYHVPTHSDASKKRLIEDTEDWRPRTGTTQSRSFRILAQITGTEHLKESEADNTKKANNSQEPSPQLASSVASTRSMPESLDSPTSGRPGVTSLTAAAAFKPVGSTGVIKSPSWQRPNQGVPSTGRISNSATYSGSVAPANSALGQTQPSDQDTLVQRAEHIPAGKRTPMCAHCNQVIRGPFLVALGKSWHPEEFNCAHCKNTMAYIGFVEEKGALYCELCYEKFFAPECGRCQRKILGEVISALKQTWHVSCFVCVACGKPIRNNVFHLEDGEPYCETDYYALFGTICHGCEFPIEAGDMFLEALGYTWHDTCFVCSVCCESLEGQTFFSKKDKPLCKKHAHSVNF

Compound: COC(=O)C#Cc1ccccc1 [methyl 3-phenylpropiolate]
Test: log2 ratio of iodoacetamide-alkyne labeling of the cysteine site, DMSO over compound (competition); higher = stronger covalent engagement of the cysteine by the compound, active = 1 or more
Details: 500 µM; treatment time 1 h; system: HEK293T cell lysate
In short: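 HEK293T lysate (2 mg/mL) was incubated with electrophile (500 µM) or vehicle for 1 h at ambient temperature and then with iodoacetamide alkyne for 1 h. Labelled proteins were clicked to sCIP-TMT reagents, pooled, digested, enriched on streptavidin and measured by Orbitrap Eclipse LC-MS/MS with FAIMS, with FragPipe quantification. The per-cysteine log2 competition ratio is mean control-channel reporter intensity over mean compound-channel reporter intensity. Across three replicates with duplicate channels, cysteines quantified in only one replicate were excluded.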

Target	log2 ratio of iodoacetamide-alkyne labeling
NDRG1 C289 (UniProt Q92597)	inactive: 0.326
UPF1 C657 (UniProt Q92900)	inactive: 0.234
PHF3 C1771 (UniProt Q92576)	inactive: 0.872
POM121 C307 (UniProt Q96HA1)	inactive: 0.328
SMARCE1 C274 (UniProt Q969G3)	inactive: 0.0379
DVL3 C92 (UniProt Q92997)	inactive: 0.396
UniProt Q92888_C537	inactive: 0.793
NUP205 C1662 (UniProt Q92621)	inactive: 0.151
MED12 C1006 (UniProt Q93074)	inactive: 0.193
USP9X C864 (UniProt Q93008)	inactive: 0.12
HDAC2 C417 (UniProt Q92769)	inactive: 0.126
UniProt Q96BD8_C142	inactive: 0.261
EFHD2 C53 (UniProt Q96C19)	inactive: 0.384
UniProt Q92879_C61	inactive: -0.0617
SYAP1 C283 (UniProt Q96A49)	inactive: 0.206
ZC3HAV1L C121 (UniProt Q96H79)	inactive: 0.308
EDC3 C91 (UniProt Q96F86)	inactive: 0.374
USP9X C577 (UniProt Q93008)	inactive: -0.0714
MRPL53 C21 (UniProt Q96EL3)	inactive: 0.057

Target	log2 ratio of iodoacetamide-alkyne labeling
FLYWCH2 C132 (UniProt Q96CP2)	inactive: 0.204
TONSL C830 (UniProt Q96HA7)	inactive: 0.444
DAZAP1 C63 (UniProt Q96EP5)	inactive: 0.183
UniProt Q969V6_C326	active: 1.42
LRRC59 C48 (UniProt Q96AG4)	inactive: 0.199
UniProt Q92615_C654	inactive: 0.572
USP7 C315 (UniProt Q93009)	inactive: 0.541
PHF3 C1616 (UniProt Q92576)	active: 1.14
KHSRP C436 (UniProt Q92945)	inactive: 0.136
UniProt Q92841_C447	inactive: 0.0335
RAD50 C1302 (UniProt Q92878)	inactive: 0.5
PDLIM5 C449 (UniProt Q96HC4)	inactive: 0.0755
DDX27 C321 (UniProt Q96GQ7)	inactive: 0.126
SNX19 C368 (UniProt Q92543)	inactive: 0.355
RAD50 C102 (UniProt Q92878)	inactive: 0.731
SMARCC1 C462 (UniProt Q92922)	inactive: 0.313
DHX38 C27 (UniProt Q92620)	active: 1.36
GBF1 C685 (UniProt Q92538)	inactive: 0.144

Taken from the results shown (2 entries):
Target	log2 ratio of iodoacetamide-alkyne labeling
UPF1 C657 (UniProt Q92900)	inactive: 0.234
PHF3 C1771 (UniProt Q92576)	inactive: 0.872
